According to article doi:10.1101/2021.01.25.428078:
These are yes or no findings as the source states them, for the method shown. In cells and extracts the contact can be indirect. Some entries that bind do so weakly or less than the wild type.

Sequences of proteins named here, by UniProt entry; tags and fusion partners are left off. A change or cut given only in a name is not applied to a line headed by its entry. Residues count along the entry.
UniProt Q13224, residues 27-1484: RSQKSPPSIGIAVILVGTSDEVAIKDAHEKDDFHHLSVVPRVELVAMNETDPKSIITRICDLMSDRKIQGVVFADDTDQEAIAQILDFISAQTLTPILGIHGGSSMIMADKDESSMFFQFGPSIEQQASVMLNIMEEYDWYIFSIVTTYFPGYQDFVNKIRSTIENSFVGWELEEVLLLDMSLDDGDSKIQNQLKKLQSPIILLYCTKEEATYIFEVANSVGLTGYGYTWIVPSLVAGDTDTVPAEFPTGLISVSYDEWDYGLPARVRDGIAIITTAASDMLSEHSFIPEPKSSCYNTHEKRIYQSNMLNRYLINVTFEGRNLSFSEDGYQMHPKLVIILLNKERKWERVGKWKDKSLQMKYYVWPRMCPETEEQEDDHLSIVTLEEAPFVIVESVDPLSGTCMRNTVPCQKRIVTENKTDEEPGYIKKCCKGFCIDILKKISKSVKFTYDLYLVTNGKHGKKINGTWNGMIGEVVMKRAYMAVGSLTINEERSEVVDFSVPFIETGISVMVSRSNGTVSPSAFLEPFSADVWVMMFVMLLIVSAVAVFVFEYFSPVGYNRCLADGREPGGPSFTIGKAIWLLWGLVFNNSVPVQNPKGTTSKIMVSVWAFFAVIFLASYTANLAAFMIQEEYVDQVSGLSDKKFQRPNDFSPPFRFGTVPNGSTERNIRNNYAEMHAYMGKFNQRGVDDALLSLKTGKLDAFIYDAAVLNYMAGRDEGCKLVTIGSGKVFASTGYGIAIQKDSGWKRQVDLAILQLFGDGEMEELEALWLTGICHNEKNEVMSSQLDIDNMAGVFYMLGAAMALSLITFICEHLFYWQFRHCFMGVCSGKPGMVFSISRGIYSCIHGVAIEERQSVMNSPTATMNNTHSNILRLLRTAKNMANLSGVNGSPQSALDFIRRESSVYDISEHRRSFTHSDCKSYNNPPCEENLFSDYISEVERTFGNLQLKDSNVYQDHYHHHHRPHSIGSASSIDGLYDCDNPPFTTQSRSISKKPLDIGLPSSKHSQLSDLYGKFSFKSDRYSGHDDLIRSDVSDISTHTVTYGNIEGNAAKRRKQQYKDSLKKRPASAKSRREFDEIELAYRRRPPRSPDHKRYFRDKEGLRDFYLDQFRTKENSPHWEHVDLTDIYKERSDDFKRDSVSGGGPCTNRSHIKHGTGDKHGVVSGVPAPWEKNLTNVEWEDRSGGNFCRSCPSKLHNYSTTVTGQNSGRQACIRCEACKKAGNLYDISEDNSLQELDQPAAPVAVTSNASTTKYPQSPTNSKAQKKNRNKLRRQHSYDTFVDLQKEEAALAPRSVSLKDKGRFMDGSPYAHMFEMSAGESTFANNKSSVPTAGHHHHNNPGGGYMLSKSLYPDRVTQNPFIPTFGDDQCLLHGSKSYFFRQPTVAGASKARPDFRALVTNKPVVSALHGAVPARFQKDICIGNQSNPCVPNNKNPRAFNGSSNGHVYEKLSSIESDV
UniProt P14416: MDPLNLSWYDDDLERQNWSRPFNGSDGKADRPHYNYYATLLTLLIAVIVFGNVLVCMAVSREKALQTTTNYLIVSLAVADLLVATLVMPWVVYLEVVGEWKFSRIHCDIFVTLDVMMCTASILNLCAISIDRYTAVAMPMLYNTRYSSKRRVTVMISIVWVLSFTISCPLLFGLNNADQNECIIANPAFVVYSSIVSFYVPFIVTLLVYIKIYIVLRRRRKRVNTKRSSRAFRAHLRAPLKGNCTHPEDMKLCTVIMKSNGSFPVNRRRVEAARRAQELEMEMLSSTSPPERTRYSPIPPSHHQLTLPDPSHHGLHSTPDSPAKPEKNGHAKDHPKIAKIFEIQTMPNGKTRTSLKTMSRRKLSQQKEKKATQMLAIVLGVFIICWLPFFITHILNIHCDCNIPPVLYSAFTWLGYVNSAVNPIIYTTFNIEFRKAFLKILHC

Biological target: GluN2B subunit of the glutamate NMDA receptor, human (human (endogenous in post-mortem caudate putamen)) (UniProt Q13224)
Test: proximity ligation

dopamine receptor 2 (D2R), human (from UniProt P14416 1-443)
binding: binds
